Data reported in the supplement of paper PMC12067093, “Discovery and optimisation of a covalent ligand for TRIM25 and its application to targeted protein ubiquitination” (Chemical Science, 2025).
This is one part of the list.

Protein sequences, listed by entry. Tags and fused reporters are not part of them. Lines headed by an entry give the natural chain unless they say otherwise; changes in a name come on top.
UniProt Q9BWE0: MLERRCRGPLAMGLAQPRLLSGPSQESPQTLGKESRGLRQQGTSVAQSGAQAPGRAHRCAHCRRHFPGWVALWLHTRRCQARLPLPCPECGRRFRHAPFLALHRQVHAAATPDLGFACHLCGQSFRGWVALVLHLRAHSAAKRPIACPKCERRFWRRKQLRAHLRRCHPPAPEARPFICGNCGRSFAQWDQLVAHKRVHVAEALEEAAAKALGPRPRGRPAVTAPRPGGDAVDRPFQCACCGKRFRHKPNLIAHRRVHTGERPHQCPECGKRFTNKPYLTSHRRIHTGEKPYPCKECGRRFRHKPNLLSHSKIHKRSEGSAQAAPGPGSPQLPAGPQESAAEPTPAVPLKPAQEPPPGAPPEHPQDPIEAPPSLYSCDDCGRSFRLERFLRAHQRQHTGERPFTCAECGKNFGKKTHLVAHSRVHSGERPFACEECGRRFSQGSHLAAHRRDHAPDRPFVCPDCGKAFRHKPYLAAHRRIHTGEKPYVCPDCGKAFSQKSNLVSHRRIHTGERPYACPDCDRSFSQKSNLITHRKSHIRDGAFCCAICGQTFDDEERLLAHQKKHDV
UniProt O75792: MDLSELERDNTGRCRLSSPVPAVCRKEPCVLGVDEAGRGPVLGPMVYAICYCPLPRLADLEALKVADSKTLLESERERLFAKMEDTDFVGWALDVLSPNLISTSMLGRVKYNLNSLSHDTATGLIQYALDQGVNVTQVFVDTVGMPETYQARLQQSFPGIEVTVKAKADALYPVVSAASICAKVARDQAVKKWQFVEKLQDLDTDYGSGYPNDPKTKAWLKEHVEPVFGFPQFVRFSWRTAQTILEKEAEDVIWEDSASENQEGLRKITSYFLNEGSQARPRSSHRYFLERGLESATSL
UniProt Q9H871: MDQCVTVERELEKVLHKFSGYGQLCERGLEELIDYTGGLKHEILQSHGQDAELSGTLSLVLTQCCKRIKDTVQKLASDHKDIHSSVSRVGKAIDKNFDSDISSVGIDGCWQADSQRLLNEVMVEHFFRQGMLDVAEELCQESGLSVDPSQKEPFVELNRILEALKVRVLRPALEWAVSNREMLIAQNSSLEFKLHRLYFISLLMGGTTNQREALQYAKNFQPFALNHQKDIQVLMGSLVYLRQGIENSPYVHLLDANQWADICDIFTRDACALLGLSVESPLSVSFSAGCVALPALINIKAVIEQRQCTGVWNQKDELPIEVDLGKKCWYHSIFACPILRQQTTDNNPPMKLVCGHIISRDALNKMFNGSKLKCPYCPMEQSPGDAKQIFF
UniProt Q13129: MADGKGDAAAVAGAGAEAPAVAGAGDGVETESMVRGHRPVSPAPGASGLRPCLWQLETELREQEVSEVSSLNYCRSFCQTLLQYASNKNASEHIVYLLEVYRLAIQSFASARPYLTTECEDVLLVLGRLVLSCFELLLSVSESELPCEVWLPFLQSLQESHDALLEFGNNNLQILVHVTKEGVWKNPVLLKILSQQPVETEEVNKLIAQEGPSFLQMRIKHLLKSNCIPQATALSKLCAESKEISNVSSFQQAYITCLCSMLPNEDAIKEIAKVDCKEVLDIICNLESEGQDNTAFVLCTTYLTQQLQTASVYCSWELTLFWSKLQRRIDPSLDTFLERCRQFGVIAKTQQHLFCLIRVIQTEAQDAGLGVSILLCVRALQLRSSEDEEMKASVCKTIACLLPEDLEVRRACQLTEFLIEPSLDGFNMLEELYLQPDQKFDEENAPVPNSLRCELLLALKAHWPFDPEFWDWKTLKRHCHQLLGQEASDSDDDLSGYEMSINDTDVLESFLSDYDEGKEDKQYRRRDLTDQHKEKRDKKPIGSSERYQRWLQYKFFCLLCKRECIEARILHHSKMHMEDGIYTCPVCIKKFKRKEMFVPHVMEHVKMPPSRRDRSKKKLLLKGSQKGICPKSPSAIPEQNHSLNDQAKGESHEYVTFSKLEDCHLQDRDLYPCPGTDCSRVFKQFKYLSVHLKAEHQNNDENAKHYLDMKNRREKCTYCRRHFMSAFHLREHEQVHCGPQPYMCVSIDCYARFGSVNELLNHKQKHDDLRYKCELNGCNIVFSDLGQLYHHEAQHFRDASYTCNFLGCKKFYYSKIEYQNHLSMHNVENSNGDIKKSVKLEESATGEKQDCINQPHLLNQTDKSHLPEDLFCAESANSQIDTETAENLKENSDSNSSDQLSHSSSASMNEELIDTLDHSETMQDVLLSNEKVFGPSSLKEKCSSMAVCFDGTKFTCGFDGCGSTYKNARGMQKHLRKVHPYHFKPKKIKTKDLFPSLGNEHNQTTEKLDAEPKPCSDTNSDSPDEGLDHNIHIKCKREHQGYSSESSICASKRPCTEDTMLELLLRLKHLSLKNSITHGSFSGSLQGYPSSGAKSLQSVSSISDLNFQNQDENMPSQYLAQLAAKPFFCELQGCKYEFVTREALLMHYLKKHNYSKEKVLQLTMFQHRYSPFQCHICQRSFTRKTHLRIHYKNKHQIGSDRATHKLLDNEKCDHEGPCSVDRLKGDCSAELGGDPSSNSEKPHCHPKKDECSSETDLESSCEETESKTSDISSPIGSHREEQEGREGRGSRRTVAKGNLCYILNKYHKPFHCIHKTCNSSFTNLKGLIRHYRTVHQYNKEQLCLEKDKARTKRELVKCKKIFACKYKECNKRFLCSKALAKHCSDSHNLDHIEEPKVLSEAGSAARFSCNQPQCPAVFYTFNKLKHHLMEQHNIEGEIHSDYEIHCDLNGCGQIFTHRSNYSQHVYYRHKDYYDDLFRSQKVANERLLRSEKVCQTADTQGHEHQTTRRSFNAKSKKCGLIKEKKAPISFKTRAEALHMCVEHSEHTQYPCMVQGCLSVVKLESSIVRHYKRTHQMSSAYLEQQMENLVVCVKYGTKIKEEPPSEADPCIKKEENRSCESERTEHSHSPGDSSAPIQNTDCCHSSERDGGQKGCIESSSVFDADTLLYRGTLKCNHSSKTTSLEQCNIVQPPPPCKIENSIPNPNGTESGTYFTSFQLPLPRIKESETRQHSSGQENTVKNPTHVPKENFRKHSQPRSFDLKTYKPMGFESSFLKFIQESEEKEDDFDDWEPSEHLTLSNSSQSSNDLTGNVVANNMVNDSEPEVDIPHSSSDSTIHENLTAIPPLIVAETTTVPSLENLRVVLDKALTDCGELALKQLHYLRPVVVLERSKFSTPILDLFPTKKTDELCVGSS
UniProt O43353, whole entry, looked up: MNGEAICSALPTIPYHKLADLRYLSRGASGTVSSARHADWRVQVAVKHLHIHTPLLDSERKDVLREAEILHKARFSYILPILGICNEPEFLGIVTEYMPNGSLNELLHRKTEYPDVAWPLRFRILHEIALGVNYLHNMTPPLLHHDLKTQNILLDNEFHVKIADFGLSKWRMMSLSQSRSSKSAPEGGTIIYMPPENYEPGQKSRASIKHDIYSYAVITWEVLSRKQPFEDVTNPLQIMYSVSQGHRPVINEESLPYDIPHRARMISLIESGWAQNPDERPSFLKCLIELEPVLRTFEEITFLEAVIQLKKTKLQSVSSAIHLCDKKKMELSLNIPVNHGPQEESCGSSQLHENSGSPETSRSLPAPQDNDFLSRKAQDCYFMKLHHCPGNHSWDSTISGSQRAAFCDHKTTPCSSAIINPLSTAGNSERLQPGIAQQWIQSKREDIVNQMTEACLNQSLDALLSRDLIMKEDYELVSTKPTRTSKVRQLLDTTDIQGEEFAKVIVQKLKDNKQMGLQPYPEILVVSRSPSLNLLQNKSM
UniProt P10153: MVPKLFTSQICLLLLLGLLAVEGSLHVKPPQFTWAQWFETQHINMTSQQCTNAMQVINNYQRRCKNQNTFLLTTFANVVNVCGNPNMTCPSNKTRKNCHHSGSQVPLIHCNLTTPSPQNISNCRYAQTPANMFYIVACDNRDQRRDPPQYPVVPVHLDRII
UniProt O94761: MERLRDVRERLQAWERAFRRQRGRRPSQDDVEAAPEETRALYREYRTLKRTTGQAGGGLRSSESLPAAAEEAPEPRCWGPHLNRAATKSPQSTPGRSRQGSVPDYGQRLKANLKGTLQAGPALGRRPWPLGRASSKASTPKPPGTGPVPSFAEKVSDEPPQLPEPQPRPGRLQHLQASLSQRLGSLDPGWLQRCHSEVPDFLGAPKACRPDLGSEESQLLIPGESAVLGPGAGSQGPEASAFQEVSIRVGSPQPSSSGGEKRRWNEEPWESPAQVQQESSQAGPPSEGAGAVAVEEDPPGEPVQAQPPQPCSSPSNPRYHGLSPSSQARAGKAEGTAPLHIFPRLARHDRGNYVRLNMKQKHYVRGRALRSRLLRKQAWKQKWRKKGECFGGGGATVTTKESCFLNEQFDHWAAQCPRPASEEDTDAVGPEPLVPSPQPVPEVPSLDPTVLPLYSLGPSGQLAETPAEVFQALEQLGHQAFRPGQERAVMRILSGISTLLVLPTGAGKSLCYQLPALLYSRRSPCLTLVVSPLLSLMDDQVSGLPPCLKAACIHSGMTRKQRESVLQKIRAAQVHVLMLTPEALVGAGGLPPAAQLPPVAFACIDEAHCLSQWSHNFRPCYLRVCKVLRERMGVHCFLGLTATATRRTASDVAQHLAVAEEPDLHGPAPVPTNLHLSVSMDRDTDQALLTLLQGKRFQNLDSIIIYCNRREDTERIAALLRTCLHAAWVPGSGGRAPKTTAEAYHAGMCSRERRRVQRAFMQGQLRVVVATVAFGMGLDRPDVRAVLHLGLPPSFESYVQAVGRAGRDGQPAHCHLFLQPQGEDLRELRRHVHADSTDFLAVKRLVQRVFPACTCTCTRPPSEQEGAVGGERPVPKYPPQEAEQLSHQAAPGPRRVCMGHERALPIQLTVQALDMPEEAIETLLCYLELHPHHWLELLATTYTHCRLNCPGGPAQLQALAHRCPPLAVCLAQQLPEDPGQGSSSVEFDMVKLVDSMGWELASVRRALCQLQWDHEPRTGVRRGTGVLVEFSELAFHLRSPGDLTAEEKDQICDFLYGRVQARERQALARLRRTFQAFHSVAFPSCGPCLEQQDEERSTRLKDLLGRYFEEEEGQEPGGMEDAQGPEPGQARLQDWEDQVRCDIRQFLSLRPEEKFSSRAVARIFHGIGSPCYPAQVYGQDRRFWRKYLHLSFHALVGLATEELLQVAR
UniProt Q6ZS17: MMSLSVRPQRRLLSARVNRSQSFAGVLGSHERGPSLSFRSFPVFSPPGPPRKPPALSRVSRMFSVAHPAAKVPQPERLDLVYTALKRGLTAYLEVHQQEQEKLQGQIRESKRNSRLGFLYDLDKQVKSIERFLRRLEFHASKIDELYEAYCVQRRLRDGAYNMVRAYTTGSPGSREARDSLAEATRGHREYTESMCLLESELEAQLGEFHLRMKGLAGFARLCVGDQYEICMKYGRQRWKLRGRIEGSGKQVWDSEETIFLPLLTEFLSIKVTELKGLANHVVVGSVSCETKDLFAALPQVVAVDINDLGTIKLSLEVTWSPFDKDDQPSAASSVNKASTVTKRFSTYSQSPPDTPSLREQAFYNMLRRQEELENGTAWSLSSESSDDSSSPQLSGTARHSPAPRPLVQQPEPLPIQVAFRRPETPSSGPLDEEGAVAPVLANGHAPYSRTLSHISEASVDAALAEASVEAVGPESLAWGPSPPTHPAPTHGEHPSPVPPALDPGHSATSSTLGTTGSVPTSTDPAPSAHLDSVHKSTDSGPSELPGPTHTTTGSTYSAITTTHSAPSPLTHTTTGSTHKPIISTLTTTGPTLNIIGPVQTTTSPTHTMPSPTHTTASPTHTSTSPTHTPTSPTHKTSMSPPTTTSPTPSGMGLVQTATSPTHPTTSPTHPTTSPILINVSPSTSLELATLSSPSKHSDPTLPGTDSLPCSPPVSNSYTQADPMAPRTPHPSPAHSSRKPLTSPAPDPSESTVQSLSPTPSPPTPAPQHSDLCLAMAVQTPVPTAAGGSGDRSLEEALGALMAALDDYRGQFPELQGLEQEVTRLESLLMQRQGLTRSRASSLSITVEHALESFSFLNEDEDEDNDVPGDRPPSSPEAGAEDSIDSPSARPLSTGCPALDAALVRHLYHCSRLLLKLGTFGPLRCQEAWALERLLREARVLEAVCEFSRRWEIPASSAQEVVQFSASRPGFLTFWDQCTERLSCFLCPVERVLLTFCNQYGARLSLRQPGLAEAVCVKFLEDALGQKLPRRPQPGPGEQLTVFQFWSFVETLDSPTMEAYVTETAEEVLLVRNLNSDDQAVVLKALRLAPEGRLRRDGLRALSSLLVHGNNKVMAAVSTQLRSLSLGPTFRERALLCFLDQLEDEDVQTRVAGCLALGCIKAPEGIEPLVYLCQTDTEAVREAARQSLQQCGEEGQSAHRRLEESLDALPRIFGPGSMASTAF
UniProt O00584, whole entry, looked up: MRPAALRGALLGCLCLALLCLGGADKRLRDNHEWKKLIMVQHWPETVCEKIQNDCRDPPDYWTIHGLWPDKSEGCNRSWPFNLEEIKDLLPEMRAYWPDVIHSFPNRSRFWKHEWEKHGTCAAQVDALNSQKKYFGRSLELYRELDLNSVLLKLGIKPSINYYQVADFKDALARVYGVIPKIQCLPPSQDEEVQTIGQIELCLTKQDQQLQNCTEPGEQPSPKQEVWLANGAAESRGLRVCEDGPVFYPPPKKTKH

Compound: Cc1cc(ccc1-c1ccccc1)C(=O)N1CCCN(CC1)C(=O)CCl [compound 10]
Assay: probe-labelled cysteine peptide fold change vs DMSO (competition) (log2 fold change); higher = less target engagement (more negative = stronger competition)
Conditions: THP-1, incubation time: 4 h
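Further: competitive profiling in live THP-1 cells: cysteine peptides tagged with an iodoacetamide desthiobiotin (IA-DTB) probe, intensity after compound treatment relative to DMSO-treated cells.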

| Target | probe-labelled cysteine peptide fold change (10 µM) | probe-labelled cysteine peptide fold change (50 µM) |
| --- | --- | --- |
| RGS10_O43665_66_EFSEENVLFWLACEDFK (UniProt O43665) | 0.332 | 0.101 |
| REPIN1_Q9BWE0_433_VHSGERPFACEECGR (UniProt Q9BWE0) | 0.213 | 0.226 |
| RFC3_P40938_164+165_LILCCNSTSK (UniProt P40938) | 0.0986 | -0.466 |
| RFTN1_Q14699_551_ALVGICTGHSNPGEDAR (UniProt Q14699) | -0.38 | -0.283 |
| RELA_Q04206_105_DCRDGFYEAELCPDR (UniProt Q04206) | -0.0366 | -0.399 |
| RNASEH2A_O75792_52_GPVLGPMVYAICYCPLPR (UniProt O75792) | 0.139 | 0.155 |
| RMND5A_Q9H871_4_MDQCVTVER (UniProt Q9H871) | -0.205 | 0.373 |
| RMND5A_Q9H871_109_NFDSDISSVGIDGCWQADSQR (UniProt Q9H871) | -0.0348 | 0.0723 |
| RNF114_Q9Y508_160_NFDQEGLVEHCK (UniProt Q9Y508) | 0.0873 | 0.126 |
| RLF_Q13129_948_CSSMAVCFDGTK (UniProt Q13129) | -0.522 | -0.843 |
| RENBP_P51606_51_VVAFWMEHSHDQEHGGFFTCLGR (UniProt P51606) | -0.139 | 0.0206 |
| RLF_Q13129_1642_TEHSHSPGDSSAPIQNTDCCHSSER (UniProt Q13129) | -0.2 | -0.396 |
| RIPK1_Q13546_256_SGNRPDVDDITEYCPR (UniProt Q13546) | -0.0669 | -0.123 |
| RIPK2_O43353_286_CLIELEPVLR (UniProt O43353) | 0.245 | 0.0863 |
| RIPK1_Q13546_34_VSLCFHR (UniProt Q13546) | 0.0991 | -0.0753 |
| RLF_Q13129_564_RECIEAR (UniProt Q13129) | -0.209 | -0.167 |
| RLF_Q13129_961_FTCGFDGCGSTYK (UniProt Q13129) | -0.214 | -0.391 |
| RHOG_P84095_102+105_WHPEVCHHCPDVPILLVGTK (UniProt P84095) | 0.028 | -0.361 |
| RHOG_P84095_18_TCLLICYTTNAFPK (UniProt P84095) | -0.108 | 0.0979 |
| RIOK2_Q9BVS4_197_HAVVMELINGYPLCQIHHVEDPASVYDEAMELIVK (UniProt Q9BVS4) | 0.344 | 0.282 |
| RMND5A_Q9H871_328_CWYHSIFACPILR (UniProt Q9H871) | -0.0113 | 0.227 |
| RNASE2_P10153_138_YAQTPANMFYIVACDNRDQR (UniProt P10153) | -0.465 | -0.74 |

| Target | probe-labelled cysteine peptide fold change (10 µM) | probe-labelled cysteine peptide fold change (50 µM) |
| --- | --- | --- |
| RLF_Q13129_663_LEDCHLQDR (UniProt Q13129) | 0.0947 | -0.0164 |
| RICTOR_Q6R327_893_TGCHLLEVQNIITELCR (UniProt Q6R327) | 0.0187 | -0.187 |
| REPS1_Q96D71_344_DGALTLDEFCAAFHLVVAR (UniProt Q96D71) | 0.12 | 0.214 |
| RNASEL_Q05823_198_ILLDEMGADVNACDNMGR (UniProt Q05823) | -0.233 | -0.0122 |
| RELA_Q04206_109_CIHSFQNLGIQCVK (UniProt Q04206) | -0.151 | -0.0988 |
| RING1_Q06587_398_VSRPLELCYAPTK (UniProt Q06587) | -0.307 | -0.358 |
| RNF139_Q8WU17_550_LQEINDVCAICYHEFTTSAR (UniProt Q8WU17) | -0.112 | 0.195 |
| RMND5A_Q9H871_328+336_CWYHSIFACPILR (UniProt Q9H871) | -0.0698 | -0.177 |
| RHBDF2_Q6PJF5_500_DSGCCVQNDHSGCIQTQR (UniProt Q6PJF5) | -0.0344 | -0.181 |
| RECQL5_O94762_977_CESEADWHGLCGPQR (UniProt O94762) | 0.223 | -0.0322 |
| RIF1_Q5UIP0_731_CAALVATAEENLCCEELSSK (UniProt Q5UIP0) | -0.398 | -0.0693 |
| RNF126_Q9BV68_13_YFCHCCSVEIVPR (UniProt Q9BV68) | 0.0903 | -0.161 |
| RLF_Q13129_584+587_MHMEDGIYTCPVCIK (UniProt Q13129) | 0.00862 | -0.342 |
| RETSAT_Q6NUM9_370_CLPGVK (UniProt Q6NUM9) | -0.221 | -0.603 |
| RLF_Q13129_1300_GNLCYILNK (UniProt Q13129) | -0.359 | -0.737 |
| RFC2_P35250_255_VCDEPHPLLVK (UniProt P35250) | 0.122 | 0.113 |
| RNF126_Q9BV68_16_YFCHCCSVEIVPR (UniProt Q9BV68) | -0.069 | -0.143 |
| RELCH_Q9P260_497_LSPAFHQALLSFCR (UniProt Q9P260) | -0.113 | -0.00728 |
| RNASE2_P10153_138_YAQTPANMFYIVACDNR (UniProt P10153) | 0.0555 | -0.042 |
| RLF_Q13129_1218_CDHEGPCSVDR (UniProt Q13129) | -0.112 | -0.412 |
| RIC1_Q4ADV7_904_FITEFPLFLQTVVHCAR (UniProt Q4ADV7) | 0.154 | 0.146 |
| RNASE3_P12724_138_FYVVACDNRDPR (UniProt P12724) | -0.00396 | -0.0836 |

| Target | probe-labelled cysteine peptide fold change (10 µM) | probe-labelled cysteine peptide fold change (50 µM) |
| --- | --- | --- |
| RHOG_P84095_105_WHPEVCHHCPDVPILLVGTK (UniProt P84095) | 0.143 | 0.0248 |
| RECQL4_O94761_897_RVCMGHER (UniProt O94761) | -0.174 | -0.567 |
| RHOT1_Q8IXI2_322_HDLDRDCALSPDELK (UniProt Q8IXI2) | 0.133 | 0.421 |
| RNF114_Q9Y508_64_KPVCGVCR (UniProt Q9Y508) | 0.0642 | -0.0371 |
| RLF_Q13129_1015_LDAEPKPCSDTNSDSPDEGLDHNIHIK (UniProt Q13129) | -0.233 | -0.173 |
| RNASEH2A_O75792_50+52_GPVLGPMVYAICYCPLPR (UniProt O75792) | 0.0932 | 0.452 |
| RGS10_O43665_66_EFSEENVLFWLACEDFKK (UniProt O43665) | 0.0842 | 0.0916 |
| RGP1_Q92546_293_HQESCLHTTR (UniProt Q92546) | 0.0253 | 0.109 |
| RMDN3_Q96TC7_321_GDESADCHLWYAVLCGQLAEHESIQR (UniProt Q96TC7) | 0.262 | 0.0335 |
| RIN1_Q13671_623_RLPATHCFQHLLR (UniProt Q13671) | -0.136 | -0.742 |
| RECQL4_O94761_897_VCMGHER (UniProt O94761) | -0.115 | -0.0657 |
| REST_Q13127_402_CNLQYHFK (UniProt Q13127) | -0.115 | 0.0335 |
| RECQL_P46063_49_QCLEDSDAGASNEYDSSPAAWNK (UniProt P46063) | -0.0254 | -0.0635 |
| RNF123_Q5XPI4_1277_ACINQHLMNNK (UniProt Q5XPI4) | -0.0494 | -0.231 |
| REPIN1_Q9BWE0_433+436_VHSGERPFACEECGR (UniProt Q9BWE0) | -0.108 | -0.289 |
| RING1_Q06587_51_SLHSELMCPICLDMLK (UniProt Q06587) | 0.153 | -0.247 |
| RFT1_Q96AA3_70_ACLSGGTQR (UniProt Q96AA3) | 0.351 | -0.13 |
| RLF_Q13129_557_FFCLLCK (UniProt Q13129) | -0.322 | -0.255 |
| RLF_Q13129_1591_THQMSSAYLEQQMENLVVCVK (UniProt Q13129) | 0.112 | -0.17 |
| RECQL_P46063_414_DDMKADCILYYGFGDIFR (UniProt P46063) | -0.106 | -0.431 |
| RINL_Q6ZS11_421_LAHLHAACAPR (UniProt Q6ZS11) | 0.0462 | 0.0735 |
| REXO2_Q9Y3B8_137_QQTPPGLCPLAGNSVHEDKK (UniProt Q9Y3B8) | -0.0798 | -0.145 |

| Target | probe-labelled cysteine peptide fold change (10 µM) | probe-labelled cysteine peptide fold change (50 µM) |
| --- | --- | --- |
| RIPK2_O43353_455_REDIVNQMTEACLNQSLDALLSR (UniProt O43353) | 0.477 | 0.0379 |
| RHOT2_Q8IXI1_216_SCFGHPLAPQALEDVK (UniProt Q8IXI1) | -0.111 | -0.195 |
| RILPL2_Q969X0_161_SQLLVVQEELQCYK (UniProt Q969X0) | -0.135 | -0.0772 |
| RIPOR1_Q6ZS17_1191_QSLQQCGEEGQSAHR (UniProt Q6ZS17) | -0.0372 | 0.0543 |
| RHOT2_Q8IXI1_185_QLRPACAQALTR (UniProt Q8IXI1) | -0.151 | 0.0492 |
| RECQL_P46063_224_IAVDEVHCCSQWGHDFRPDYK (UniProt P46063) | 0.0898 | 0.00529 |
| RIOK3_O14730_346_AGIPCPTVVLLK (UniProt O14730) | 0.0924 | -0.0839 |
| RLF_Q13129_1494_VCQTADTQGHEHQTTR (UniProt Q13129) | 0.131 | -0.309 |
| RFFL_Q8WZ73_123_DYLSLHDISTEMCR (UniProt Q8WZ73) | 0.111 | 0.18 |
| RIPOR1_Q6ZS17_196_EYTESMCLLESELEAQLGEFHLR (UniProt Q6ZS17) | -0.0505 | 0.0867 |
| RNASET2_O00584_241_VCEDGPVFYPPPK (UniProt O00584) | -0.342 | 0.112 |
| RGN_Q15493_218_LWVACYNGGR (UniProt Q15493) | -0.427 | -0.518 |
| RNF149_Q8NC42_295_ICIDPWLLDHR (UniProt Q8NC42) | -0.125 | -0.168 |
| RHOT1_Q8IXI2_421_CNVIGVK (UniProt Q8IXI2) | 0.115 | 0.201 |
| RIF1_Q5UIP0_2274_CLISEMAK (UniProt Q5UIP0) | -0.226 | -0.531 |
| RECQL_P46063_321_GQSGIIYCFSQK (UniProt P46063) | 0.109 | 0.149 |
| RNASET2_O00584_48_KLIMVQHWPETVCEK (UniProt O00584) | -0.108 | -0.333 |
| RFT1_Q96AA3_448_ITQSLCFIHR (UniProt Q96AA3) | -0.704 | -0.836 |
| RIPOR1_Q6ZS17_289_GLANHVVVGSVSCETK (UniProt Q6ZS17) | -0.0436 | 0.0415 |
